Test results as given in paper PMC10950282.
These are yes or no findings as the source states them, for the method shown. In cells and extracts the contact can be indirect.

The chains behind the UniProt entries cited, without tags or fusion partners.
UniProt O43365: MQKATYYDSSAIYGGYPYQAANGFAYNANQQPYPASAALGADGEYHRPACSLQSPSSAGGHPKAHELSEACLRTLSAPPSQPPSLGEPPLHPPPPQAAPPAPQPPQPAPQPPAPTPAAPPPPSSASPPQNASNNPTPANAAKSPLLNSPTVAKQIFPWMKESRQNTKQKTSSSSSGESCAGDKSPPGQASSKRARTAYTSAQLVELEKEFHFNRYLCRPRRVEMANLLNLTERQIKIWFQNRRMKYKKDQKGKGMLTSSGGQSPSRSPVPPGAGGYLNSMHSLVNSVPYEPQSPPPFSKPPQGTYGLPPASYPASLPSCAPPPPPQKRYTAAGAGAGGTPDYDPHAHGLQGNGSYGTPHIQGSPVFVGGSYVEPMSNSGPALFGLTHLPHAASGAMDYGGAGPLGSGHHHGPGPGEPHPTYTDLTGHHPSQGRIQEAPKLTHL

Biological target: T1, Carnitine palmitoyltransferase 1A (CPT1A) (human (endogenous in HEK-293T)) (UniProt P50416)
T1 sequence: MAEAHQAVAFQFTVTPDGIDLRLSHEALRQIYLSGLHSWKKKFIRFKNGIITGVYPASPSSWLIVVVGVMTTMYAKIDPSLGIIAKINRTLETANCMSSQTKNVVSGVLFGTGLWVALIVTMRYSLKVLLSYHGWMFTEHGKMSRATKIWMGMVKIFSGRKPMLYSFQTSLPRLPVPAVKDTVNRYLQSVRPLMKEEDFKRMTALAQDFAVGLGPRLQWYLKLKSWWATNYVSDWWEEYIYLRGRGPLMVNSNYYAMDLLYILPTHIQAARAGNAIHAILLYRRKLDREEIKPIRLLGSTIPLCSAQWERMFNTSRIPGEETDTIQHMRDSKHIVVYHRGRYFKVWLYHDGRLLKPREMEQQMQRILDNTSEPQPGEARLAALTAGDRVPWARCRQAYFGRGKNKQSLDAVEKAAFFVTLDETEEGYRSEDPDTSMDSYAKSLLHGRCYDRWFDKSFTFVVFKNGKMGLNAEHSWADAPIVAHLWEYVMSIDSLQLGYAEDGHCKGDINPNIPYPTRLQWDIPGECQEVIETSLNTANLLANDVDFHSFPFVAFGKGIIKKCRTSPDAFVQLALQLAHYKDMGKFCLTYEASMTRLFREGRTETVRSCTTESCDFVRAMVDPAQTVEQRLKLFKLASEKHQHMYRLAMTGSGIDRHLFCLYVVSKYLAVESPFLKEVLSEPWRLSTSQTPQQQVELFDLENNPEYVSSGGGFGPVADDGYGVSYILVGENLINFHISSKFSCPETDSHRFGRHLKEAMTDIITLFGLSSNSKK
Test: co-IP; HEK-293T cells lysed in RIPA buffer with protease inhibitors; CPT1A or IgG antibody overnight at 4°C, protein A agarose beads 2 h at 4°C; precipitate analysed by western blot

## HOXA3 (from UniProt O43365 1-443)
  binding: no binding
